Measured values as given in article doi:10.1101/2020.07.20.211417.

Amino acid sequences for entries named in this document (tags omitted). Residues count along the entry.
UniProt O75348: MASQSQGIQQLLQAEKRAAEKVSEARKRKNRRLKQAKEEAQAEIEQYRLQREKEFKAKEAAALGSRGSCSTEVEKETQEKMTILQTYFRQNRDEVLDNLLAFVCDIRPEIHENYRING
UniProt P55854, residues 1-92: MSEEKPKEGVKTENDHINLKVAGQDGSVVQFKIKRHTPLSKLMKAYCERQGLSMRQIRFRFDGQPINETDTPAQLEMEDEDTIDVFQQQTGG
UniProt O00459: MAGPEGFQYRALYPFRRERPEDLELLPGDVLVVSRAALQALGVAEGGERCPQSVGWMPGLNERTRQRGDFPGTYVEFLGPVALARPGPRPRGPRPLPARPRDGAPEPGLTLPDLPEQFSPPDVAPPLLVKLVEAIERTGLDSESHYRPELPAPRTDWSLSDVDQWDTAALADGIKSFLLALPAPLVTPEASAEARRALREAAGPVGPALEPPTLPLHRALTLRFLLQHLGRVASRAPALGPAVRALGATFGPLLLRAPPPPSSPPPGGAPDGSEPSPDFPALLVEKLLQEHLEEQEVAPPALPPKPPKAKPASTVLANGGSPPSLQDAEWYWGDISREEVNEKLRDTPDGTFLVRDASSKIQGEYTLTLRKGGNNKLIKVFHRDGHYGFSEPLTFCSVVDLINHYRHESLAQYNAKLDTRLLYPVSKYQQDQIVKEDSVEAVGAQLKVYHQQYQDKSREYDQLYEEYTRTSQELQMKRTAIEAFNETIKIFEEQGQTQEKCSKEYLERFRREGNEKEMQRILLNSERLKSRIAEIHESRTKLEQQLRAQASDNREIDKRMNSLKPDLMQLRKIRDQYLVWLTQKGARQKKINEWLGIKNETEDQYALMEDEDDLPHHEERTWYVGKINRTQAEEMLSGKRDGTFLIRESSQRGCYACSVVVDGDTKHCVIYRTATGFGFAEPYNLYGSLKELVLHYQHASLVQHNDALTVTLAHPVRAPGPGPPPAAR
UniProt A2AJT9: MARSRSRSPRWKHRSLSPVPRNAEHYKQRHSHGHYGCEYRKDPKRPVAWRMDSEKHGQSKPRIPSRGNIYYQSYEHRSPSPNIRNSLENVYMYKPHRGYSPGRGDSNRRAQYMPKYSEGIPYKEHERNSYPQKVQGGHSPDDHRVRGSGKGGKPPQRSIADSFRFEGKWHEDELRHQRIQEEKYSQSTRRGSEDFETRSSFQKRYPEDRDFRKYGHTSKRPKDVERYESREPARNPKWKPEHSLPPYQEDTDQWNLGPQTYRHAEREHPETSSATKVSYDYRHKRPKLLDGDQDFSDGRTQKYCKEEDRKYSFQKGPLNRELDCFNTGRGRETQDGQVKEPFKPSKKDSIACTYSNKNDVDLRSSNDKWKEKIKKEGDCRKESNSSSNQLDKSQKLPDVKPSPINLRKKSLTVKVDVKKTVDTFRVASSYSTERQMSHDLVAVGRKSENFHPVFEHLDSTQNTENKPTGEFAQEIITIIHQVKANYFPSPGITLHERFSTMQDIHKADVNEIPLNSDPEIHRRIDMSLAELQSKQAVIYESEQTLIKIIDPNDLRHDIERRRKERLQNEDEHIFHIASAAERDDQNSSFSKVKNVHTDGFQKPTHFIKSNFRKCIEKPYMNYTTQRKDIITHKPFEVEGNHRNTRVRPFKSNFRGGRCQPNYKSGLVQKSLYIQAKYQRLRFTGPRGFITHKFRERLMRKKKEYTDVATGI

B1: EBNA1 Binding Protein 2 (EBNA1BP2) (protein, UniProt Q99848 1-306)
chain: MDTPPLSDSESESDESLVTDRELQDAFSRGLLKPGLNVVLEGPKKAVNDVNGLKQCLAEFKRDLEWVERLDVTLGPVPEIGGSEAPAPQNKDQKAVDPEDDFQREMSFYRQAQAAVLAVLPRLHQLKVPTKRPTDYFAEMAKSDLQMQKIRQKLQTKQAAMERSEKAKQLRALRKYGKKVQTEVLQKRQQEKAHMMNAIKKYQKGFSDKLDFLEGDQKPLAQRKKAGAKGQQMRKGPSAKRRYKNQKFGFGGKKKGSKWNTRESYDDVSSFRAKTAHGRGLKRPGKKGSNKRPGKRTREKMKNRTH
B2: C18orf25 (protein, UniProt Q96B23 1-404)
chain: MKMEEAVGKVEELIESEAPPKASEQETAKEEDGSVELESQVQKDGVADSTVISSMPCLLMELRRDSSESQLASTESDKPTTGRVYESDSSNHCMLSPSSSGHLADSDTLSSAEENEPSQAETAVEGDPSGVSGATVGRKSRRSRSESETSTMAAKKNRQSSDKQNGRVAKVKGHRSQKHKERIRLLRQKREAAARKKYNLLQDSSTSDSDLTCDSSTSSSDDDEEVSGSSKTITAEIPDGPPVVAHYDMSDTNSDPEVVNVDNLLAAAVVQEHSNSVGGQDTGATWRTSGLLEELNAEAGHLDPGFLASDKTSAGNAPLNEEINIASSDSEVEIVGVQEHARCVHPRGGVIQSVSSWKHGSGTQYVSTRQTQSWTAVTPQQTWASPAEVVDLTLDEDSRRKYLL

What was measured:
Assay in all cases: proximity labelling
[1] = biological target: T1, IRS4 (WT)-PafA (UniProt O14654)
T1 sequence: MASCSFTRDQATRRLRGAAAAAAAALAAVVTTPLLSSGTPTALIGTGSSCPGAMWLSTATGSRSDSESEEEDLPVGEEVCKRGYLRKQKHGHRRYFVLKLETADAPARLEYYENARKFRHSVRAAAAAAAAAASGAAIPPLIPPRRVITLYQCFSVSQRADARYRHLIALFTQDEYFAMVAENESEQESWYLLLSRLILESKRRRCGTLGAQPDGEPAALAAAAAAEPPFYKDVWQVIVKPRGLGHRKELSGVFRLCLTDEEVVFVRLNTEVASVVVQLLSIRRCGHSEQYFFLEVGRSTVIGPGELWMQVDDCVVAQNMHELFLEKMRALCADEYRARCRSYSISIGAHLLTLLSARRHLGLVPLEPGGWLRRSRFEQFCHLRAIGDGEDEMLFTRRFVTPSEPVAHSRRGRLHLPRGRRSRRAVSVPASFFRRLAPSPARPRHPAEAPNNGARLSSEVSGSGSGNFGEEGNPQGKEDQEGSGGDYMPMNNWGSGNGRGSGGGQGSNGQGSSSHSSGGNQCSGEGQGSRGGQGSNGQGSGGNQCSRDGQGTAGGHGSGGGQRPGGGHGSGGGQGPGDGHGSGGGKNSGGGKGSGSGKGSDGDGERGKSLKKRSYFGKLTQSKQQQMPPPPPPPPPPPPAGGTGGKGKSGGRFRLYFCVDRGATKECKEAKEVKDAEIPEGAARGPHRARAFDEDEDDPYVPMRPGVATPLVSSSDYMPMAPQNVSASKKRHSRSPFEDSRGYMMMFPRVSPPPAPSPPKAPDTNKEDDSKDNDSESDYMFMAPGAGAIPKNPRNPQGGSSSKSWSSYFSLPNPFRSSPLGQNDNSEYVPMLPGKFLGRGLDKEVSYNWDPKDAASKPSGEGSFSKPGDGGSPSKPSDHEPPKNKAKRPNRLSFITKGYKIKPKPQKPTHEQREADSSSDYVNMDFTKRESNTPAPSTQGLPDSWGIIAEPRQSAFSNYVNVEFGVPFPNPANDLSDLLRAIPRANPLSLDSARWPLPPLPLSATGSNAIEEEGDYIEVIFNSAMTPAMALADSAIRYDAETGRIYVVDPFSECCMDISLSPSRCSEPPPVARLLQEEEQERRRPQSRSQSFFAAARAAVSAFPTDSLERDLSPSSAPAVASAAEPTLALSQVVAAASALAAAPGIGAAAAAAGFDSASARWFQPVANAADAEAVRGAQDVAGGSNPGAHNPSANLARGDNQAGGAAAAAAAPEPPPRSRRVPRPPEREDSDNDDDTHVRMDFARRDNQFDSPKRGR

[2] = biological target: T2, IRS4 (Y921F)-PafA (UniProt O14654)
T2 sequence: T1 sequence with Y921F

[3] = biological target: T3, IRS4 (Y847F)-PafA (UniProt O14654)
T3 sequence: T1 sequence with Y847F

[4] = biological target: T4, IRS4 (Y779F)-PafA (UniProt O14654)
T4 sequence: T1 sequence with Y779F

| Molecule | binding [1] | binding [2] | binding [3] | binding [4] |
| --- | --- | --- | --- | --- |
| ATP6V1G1 (from UniProt O75348 1-118) | binds | – | – | – |
| SUMO3 (from UniProt P55854 1-92) | binds | – | – | – |
| PIK3R2/p85β, the regulatory subunit of PI-3K (from UniProt O00459 1-728) | binds | – | – | – |
| CXorf23 (from UniProt A2AJT9 1-711) | binds | – | – | – |
| B1 | binds | binds | binds | binds |
| B2 | binds | – | – | – |

Where a chain is given by its changes, count along the chain named. Results are given in words; binding and its absence hold for the method and conditions named. Binding seen in cells or lysates may run through a third protein. Here binding means that the protein was enriched with, or labelled near, the bait; the list need not be complete.
